# Assay results reported in the supplement of paper PMC8728848.
# This is one part of the list.
# B1: PX9961Q-bfa-504-27-504 (Bacteroides fragilis) (protein)
# chain: NDWLDRKPADGIPSEDAITNYNDALTARTGMYDGIQGNSNATSYYGARMFYYGDVRADDMQARTQGMRSSSCYEMLYTVDDAPNMWNIPYNVIRRANRLIEAINEKKVTDATEAQIGKIYSEALVVRALVHFDLVRIYGMPYTADNGASLGVPVIVKPLERNDLPSRNTVAEVYTQVITDLTDAINSGYLAKDQTPGYINEWAAKALLTRVYLTKGDNENALKVAEDIITNSPYKLWTNEEYVNAWYKSNGAHTNEMIFEVVNASNDDWTDRNGIAYLLNENGYADAIVTKSFMNMLSQDPKDVRIGMVLPAQYDKDLQEEYGDAKIFINKFPADKDDVGEMRLNNLPLLRLSEVYLSAAEAAAKLGGHQDKAAKYLNEIVQRANPEAKAISEADATVERIILERRKEMIGEGQRYFDALRNNETIVRYKDEGDKGYHYSLIKESQSFDRTYFRAILPIPVDETNVNPNLRAQQNPGY
# Assays:
# Assay in all cases: glycan array binding signal (z-score within array); higher = stronger binding
# Settings in all cases: glycan notation: IUPAC condensed, linker removed
# [1] = molecular target: Gal(b1-4)GlcNAc(b1-3)Gal(b1-4)GlcNAc(b1-6)[Gal(b1-3)]GalNAc
# Summary of the method: (§1)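 The binding signal is a Z-score computed within each array and averaged over linkers. Arrays of the same protein sequence at different concentrations or buffers were also averaged together. Data originate from 3228 arrays in the Consortium for Functional Glycomics database, kept only where the protein sequence was available.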
# [2] = molecular target: Gal(b1-4)GlcNAc(b1-3)Gal(b1-4)[Fuc(a1-3)]GlcNAc(b1-3)Gal(b1-4)[Fuc(a1-3)]GlcNAc
# Summary of the method: as §1
# [3] = molecular target: Gal(b1-4)GlcNAc(b1-3)GalNAc
# Summary of the method: as §1
# [4] = molecular target: Gal(b1-4)GlcNAc(b1-3)[Fuc(a1-3)GlcNAc(b1-6)]Gal(b1-4)Glc
# Summary of the method: as §1
# [5] = molecular target: Gal(b1-4)GlcNAc(b1-3)[Gal(b1-4)GlcNAc(b1-6)]Gal(b1-4)GlcNAc
# Summary of the method: as §1
# [6] = molecular target: Gal(b1-4)GlcNAc(b1-3)[GlcNAc(b1-6)]Gal(b1-4)GlcNAc
# Summary of the method: as §1
# [7] = molecular target: Gal(b1-4)GlcNAc(b1-6)Gal(b1-4)GlcNAc
# Summary of the method: as §1
# [8] = molecular target: Gal(b1-4)GlcNAc(b1-6)GalNAc
# Summary of the method: as §1
# [9] = molecular target: Gal(b1-4)GlcNAc(b1-6)[Gal(b1-3)]GalNAc
# Summary of the method: as §1
# [10] = molecular target: Gal(b1-4)GlcNAc(b1-6)[Gal(b1-4)GlcNAc(b1-3)]GalNAc
# Summary of the method: as §1
# [11] = molecular target: Gal(b1-4)GlcNAc6P
# Summary of the method: as §1
# [12] = molecular target: Gal(b1-6)Gal
# Summary of the method: as §1
# [13] = molecular target: Gal3S(b1-3)GalNAc
# Summary of the method: as §1
# [14] = molecular target: Gal3S(b1-3)GlcNAc
# Summary of the method: as §1
# [15] = molecular target: Gal3S(b1-3)[Fuc(a1-4)]GlcNAc
# Summary of the method: as §1
# [16] = molecular target: Gal3S(b1-4)Glc
# Summary of the method: as §1
# [17] = molecular target: Gal3S(b1-4)Glc6S
# Summary of the method: as §1
# [18] = molecular target: Gal3S(b1-4)GlcNAc
# Summary of the method: as §1
# [19] = molecular target: Gal3S(b1-4)[Fuc(a1-3)]Glc6S
# Summary of the method: as §1
# [20] = molecular target: Gal3S(b1-4)[Fuc(a1-3)]GlcNAc
# Summary of the method: as §1
# [21] = molecular target: Gal3S(b1-4)[Fuc(a1-3)]GlcNAc6S
# Summary of the method: as §1
# [22] = molecular target: Gal3S4S(b1-4)GlcNAc
# Summary of the method: as §1
# [23] = molecular target: Gal3S6S(b1-4)GlcNAc
# Summary of the method: as §1
# [24] = molecular target: Gal3S6S(b1-4)GlcNAc6S
# Summary of the method: as §1
# [25] = molecular target: Gal4S(b1-4)GlcNAc
# Summary of the method: as §1
# [26] = molecular target: Gal4S6S(b1-4)GlcNAc
# Summary of the method: as §1
# [27] = molecular target: Gal6P(b1-4)GlcNAc
# Summary of the method: as §1
# [28] = molecular target: Gal6S(b1-3)GlcNAc
# Summary of the method: as §1
# [29] = molecular target: Gal6S(b1-3)GlcNAc6S
# Summary of the method: as §1
# [30] = molecular target: Gal6S(b1-4)Glc
# Summary of the method: as §1
# [31] = molecular target: Gal6S(b1-4)Glc6S
# Summary of the method: as §1
# [32] = molecular target: Gal6S(b1-4)GlcNAc
# Summary of the method: as §1
# [33] = molecular target: Gal6S(b1-4)GlcNAc6S
# Summary of the method: as §1
# [34] = molecular target: GalNAc(a1-3)Gal
# Summary of the method: as §1
# [35] = molecular target: GalNAc(a1-3)GalNAc
# Summary of the method: as §1
# [36] = molecular target: GalNAc(a1-3)GalNAc(b1-3)Gal(a1-4)Gal(b1-4)Glc
# Summary of the method: as §1
# [37] = molecular target: GalNAc(a1-3)GalNAc(b1-3)Gal(a1-4)Gal(b1-4)GlcNAc
# Summary of the method: as §1
# [38] = molecular target: GalNAc(b1-3)Gal
# Summary of the method: as §1
# [39] = molecular target: GalNAc(b1-3)Gal(a1-4)Gal(b1-4)GlcNAc
# Summary of the method: as §1
# [40] = molecular target: GalNAc(b1-3)Gal(a1-4)Gal(b1-4)GlcNAc(b1-3)Gal(b1-4)Glc
# Summary of the method: as §1
# [41] = molecular target: GalNAc(b1-3)Gal(a1-6)Gal(b1-4)Glc
# Summary of the method: as §1
# [42] = molecular target: GalNAc(b1-3)GalNAc
# Summary of the method: as §1
# [43] = molecular target: GalNAc(b1-3)GlcNAc
# Summary of the method: as §1
# [44] = molecular target: GalNAc(b1-4)Gal(b1-4)Glc
# Summary of the method: as §1
# [45] = molecular target: GalNAc(b1-4)GlcNAc
# Summary of the method: as §1
binder,measurement,setting,value
B1,glycan array binding signal (z-score),[1],0.674
same,glycan array binding signal (z-score),[2],-0.284
same,glycan array binding signal (z-score),[3],-0.431
same,glycan array binding signal (z-score),[4],0.415
same,glycan array binding signal (z-score),[5],0.572
same,glycan array binding signal (z-score),[6],0.193
same,glycan array binding signal (z-score),[7],0.486
same,glycan array binding signal (z-score),[8],0.056
same,glycan array binding signal (z-score),[9],-0.289
same,glycan array binding signal (z-score),[10],-0.718
same,glycan array binding signal (z-score),[11],0.015
same,glycan array binding signal (z-score),[12],0.122
same,glycan array binding signal (z-score),[13],-0.809
same,glycan array binding signal (z-score),[14],-0.053
same,glycan array binding signal (z-score),[15],-0.484
same,glycan array binding signal (z-score),[16],0.8
same,glycan array binding signal (z-score),[17],-0.255
same,glycan array binding signal (z-score),[18],0.727
same,glycan array binding signal (z-score),[19],-0.067
same,glycan array binding signal (z-score),[20],0.249
same,glycan array binding signal (z-score),[21],0.804
same,glycan array binding signal (z-score),[22],-0.278
same,glycan array binding signal (z-score),[23],-0.221
same,glycan array binding signal (z-score),[24],-0.031
same,glycan array binding signal (z-score),[25],-0.388
same,glycan array binding signal (z-score),[26],-0.48
same,glycan array binding signal (z-score),[27],-0.405
same,glycan array binding signal (z-score),[28],-0.708
same,glycan array binding signal (z-score),[29],0.217
same,glycan array binding signal (z-score),[30],-0.185
same,glycan array binding signal (z-score),[31],-0.063
same,glycan array binding signal (z-score),[32],-0.679
same,glycan array binding signal (z-score),[33],-0.591
same,glycan array binding signal (z-score),[34],-0.131
same,glycan array binding signal (z-score),[35],-0.295
same,glycan array binding signal (z-score),[36],-1.01
same,glycan array binding signal (z-score),[37],1.69
same,glycan array binding signal (z-score),[38],-0.079
same,glycan array binding signal (z-score),[39],-0.265
same,glycan array binding signal (z-score),[40],0.152
same,glycan array binding signal (z-score),[41],-0.567
same,glycan array binding signal (z-score),[42],0.041
same,glycan array binding signal (z-score),[43],0.354
same,glycan array binding signal (z-score),[44],0.821
same,glycan array binding signal (z-score),[45],-0.79

# 3 records drawn at random from the list so far, as already listed:
binder,measurement,setting,value
B1,glycan array binding signal (z-score),[38],-0.079
same,glycan array binding signal (z-score),[31],-0.063
same,glycan array binding signal (z-score),[24],-0.031
